Measurements reported in PubChem BioAssay AID504764 (Drosophila RNAi Screening Center, 2011).
The screen tested about 22,000 reagents; this is a random part of those that have a named target and a result. In the full data, 403 (1.9%) were called active. 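Unnormalised raw counts per well; ratio z-scores behind the hit calls and whether each hit raises or lowers signal are not deposited.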 The record does not give: the amount of reagent.

- Aim: 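Genome-wide screen for regulators of Notch-driven gene expression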 (primary screen)
- Cell system: Drosophila Kc167 cells
- Knock-down reagent: long dsRNA against Drosophila genes
- Timing: about 5 days (4 days dsRNA, then 24 h after transfection)
- Challenge: transfection of constitutively active membrane-tethered Notch lacking the extracellular domain, read 24 h later
- Read-out: 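Light from a Notch-responsive E(spl)m3 luciferase reporter under active Notch, with control-promoter and no-Notch reporter wells to normalise; raw counts from paired wells a and b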
- Direction: induced reporter light, run 1, well a and induced reporter light, run 1, well b: higher = more light from the Notch target reporter with active Notch; control promoter light, run 1, well a and control promoter light, run 1, well b: higher = more light from the viral control promoter (cell number, transfection, viability); uninduced reporter light, run 1, well a: higher = more light from the Notch target reporter without active Notch
- Hit rule: 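Wells with low control signal or poorly matching duplicates excluded; duplicates averaged; per source plate, z beyond ±2 for induced/control log2 ratio or beyond ±1.8 for induced/uninduced marks a hit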
- Meaning of the calls: active = modifier hit (raised or lowered Notch signal); inactive = not a hit

no.	Target gene	dsRNA	induced reporter light, run 1, well a	induced reporter light, run 1, well b	control promoter light, run 1, well a	control promoter light, run 1, well b	uninduced reporter light, run 1, well a	call
1	CG18324	DRSC06721	1.87e5	1.39e5	1.88e5	1.59e5	12510	inactive
2	CR33318	DRSC22949						inactive
3	CG14642	DRSC12228	1.24e5	1.24e5	79370	94175	7670	inactive
4	Tmx3	DRSC10471	1.41e5	1.74e5	1.61e5	1.66e5	12805	inactive
5	Atg8a	DRSC18024	1.02e5	94495	2.19e5	2.35e5	8720	inactive
6	CG7058	DRSC20021	64045	87550	60975	96620	9760	inactive
7	Rhau	DRSC03200	1.46e5	1.56e5	1.39e5	1.30e5	11240	inactive
8	tutl	DRSC00441	1.92e5	1.78e5	1.91e5	1.80e5	12610	inactive
9	tutl	DRSC00442	2.99e5	2.00e5	2.80e5	2.60e5	14755	inactive
10	tutl	DRSC00443	1.72e5	2.02e5	1.70e5	1.99e5	15520	inactive
11	Gfat1	DRSC21219	1.24e5	1.16e5	1.47e5	1.69e5	12135	inactive
12	CG31468	DRSC13637	2.15e5	1.70e5	1.93e5	2.12e5	14880	inactive
13	CG6565	DRSC02970	2.09e5	1.83e5	1.86e5	1.75e5	13078	inactive
14	Lcp65Ag3	DRSC10345	1.76e5	1.72e5	1.65e5	1.49e5	6120	inactive
15	cGlr1	DRSC06270	1.46e5	1.04e5	1.42e5	1.58e5	12900	inactive
16	CG14854	DRSC14978	2.58e5	2.54e5	2.20e5	2.44e5	18265	inactive
17	GstD3	DRSC15571	71240	73275	65190	51135	4225	inactive
18	mEFTu1	DRSC06959	1.06e5	1.02e5	1.05e5	96280	7835	inactive
19	HDAC1	DRSC08696	1.40e5	1.11e5	53165	30045	11210	active
20	MFS14	DRSC06524	1.03e5	1.10e5	1.98e5	1.51e5	8490	inactive
21	CG10376	DRSC02049	2.53e5	2.56e5	2.10e5	1.94e5	20360	inactive
22	CG14223	DRSC19580	1.12e5	1.07e5	1.08e5	1.73e5	10985	inactive
23	CG2909	DRSC18241	1.31e5	1.29e5	1.44e5	1.62e5	10195	inactive
24	CG3511	DRSC04382	2.04e5	1.39e5	1.14e5	1.21e5	13388	inactive
25	CG10814	DRSC06004	1.54e5	1.80e5	1.50e5	1.58e5	15745	inactive
26	CG14422	DRSC17919	1.11e5	1.28e5	2.00e5	2.39e5	8085	inactive
27	THG	DRSC01896	1.48e5	1.62e5	1.25e5	1.61e5	9970	inactive
28	ClC-a	DRSC14947	99720	93365	86245	67415	6190	inactive
29	ClC-a	DRSC14948	88820	84680	76080	79020	5720	inactive
30	ClC-a	DRSC16142	1.56e5	1.28e5	93010	78880	10565	inactive
31	CG32066	DRSC10652	1.05e5	92615	74380	29105	10160	inactive
32	CG32066	DRSC10653	1.95e5	1.57e5	2.42e5	2.23e5	8765	inactive
33	Atg6	DRSC15798	67600	66630	78390	95510	4432	inactive
34	CG42232	DRSC15018	1.23e5	1.13e5	1.38e5	1.49e5	12605	inactive
35	CG42232	DRSC15019	1.79e5	1.97e5	2.19e5	2.93e5	17950	inactive
